PubChem BioAssay AID1259405 – NCATS, 2018

Assay: 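Knock-downs that lift recombinant protein yield in hamster ovary cells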 (primary screen)
Cells: Chinese hamster CHO-K1 ovary cells with stable secreted eGFP expression
Knock-down reagent: single siRNA against mouse genes, 0.8 pmol siRNA per well (2 µl of 400 nM stock)
Time to read-out: 3 days
Read-out: 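Per-well intracellular GFP measured by laser scanning cytometry, plus viability from ATP luminescence, each relative to plate median of non-targeting control wells, in %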
Scale: GFP, % of control: higher = more GFP per well, higher productivity; viability (ATP), % of control: higher = more viable cells (more ATP)
Call rule: 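a knock-down is called active if GFP reaches 120% or more of non-targeting control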
The deposit covers about 50,000 reagents; this is a random part of them. About 4,000 of all reagents (8%) were called active. 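Mouse siRNA library applied to hamster cells; one well for each siRNA.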 Reagents against one gene are numbered here. Reagent sequences are not shown.

Gene	reagent	GFP, % of control	viability (ATP), % of control	Call
Cdk3	1	45.9	15	inactive
Cdk3	2	94	90.3	inactive
Cdk3	3	69.7	57.1	inactive
Tnfaip3	1	69.5	69.4	inactive
Tnfaip3	2	91	86.8	inactive
Tnfaip3	3	73.2	53.1	inactive
Bckdha	1	139	83.8	active
Bckdha	2	107	73.6	inactive
Bckdha	3	77	81.9	inactive
Mier1	1	37	74.5	inactive
Mier1	2	104	79.5	inactive
Or10p21	1	110	64.6	inactive
Or10p21	2	85	81	inactive
Or10p21	3	38.7	45.3	inactive
Cep44	1	52.6	64	inactive
Cep44	2	59.8	98.4	inactive
Cep44	3	129	125	active
Gfpt1	1	84.8	99.7	inactive
Gfpt1	2	64.3	71.9	inactive
Gfpt1	3	66.5	68	inactive
Cdk2	1	77	58.9	inactive
Cdk2	2	73.3	62.4	inactive
Cdk2	3	38	83.2	inactive
Serpinb11	1	58.4	85.9	inactive
Serpinb11	2	42.7	54.1	inactive
Serpinb11	3	148	84.1	active
Hyal1	1	122	106	active
Hyal1	2	71.1	73.7	inactive
Hyal1	3	93.4	71.5	inactive
Arnt	1	69.8	65.2	inactive
Arnt	2	79.4	84.4	inactive
Patl1	1	42.6	26.5	inactive
Patl1	2	163	141	active
Patl1	3	84.2	28.8	inactive
Patl1	4	81.9	82.8	inactive
Patl1	5	81.5	82.8	inactive
Patl1	6	163	141	active
Slc25a40	1	122	142	active
Slc25a40	2	61.1	45.5	inactive
Slc25a40	3	50.9	58.9	inactive
Cox11	1	71.1	101	inactive
Cox11	2	80.6	106	inactive
Cox11	3	65.9	81.4	inactive
Prap1	1	121	54.9	active
Prap1	2	143	57.4	active
Prap1	3	137	103	active
AI467606	1	76.4	76.5	inactive
AI467606	2	98.1	77.3	inactive
AI467606	3	92.3	86.2	inactive
Lhx9	1	61.4	50.1	inactive
Lhx9	2	80.2	94.5	inactive
Lhx9	3	88.1	91.8	inactive
Gsk3a	1	30.5	62.2	inactive
Fancb	1	115	56.4	inactive
Fancb	2	116	102	inactive
Fancb	3	161	162	active
Ndufaf7	1	56.4	66.9	inactive
Ndufaf7	2	60.8	70.6	inactive
Ndufaf7	3	83.6	79.4	inactive

Sorted by “viability (ATP), % of control” (high to low): some entries from above.
Gene	reagent	GFP, % of control	viability (ATP), % of control	Call
Prap1	3	137	103	active
AI467606	3	92.3	86.2	inactive
AI467606	2	98.1	77.3	inactive
AI467606	1	76.4	76.5	inactive
